# The other results are listed elsewhere or left out. Residues, ends and D or L forms follow the SMILES beside them. *: point of attachment. Cbz = O=C(OCc1ccccc1)*
# Amino acid sequences for entries named in this document (tags omitted). A change or cut given only in a name is not applied to a line headed by its entry.
# UniProt Q9BTC8: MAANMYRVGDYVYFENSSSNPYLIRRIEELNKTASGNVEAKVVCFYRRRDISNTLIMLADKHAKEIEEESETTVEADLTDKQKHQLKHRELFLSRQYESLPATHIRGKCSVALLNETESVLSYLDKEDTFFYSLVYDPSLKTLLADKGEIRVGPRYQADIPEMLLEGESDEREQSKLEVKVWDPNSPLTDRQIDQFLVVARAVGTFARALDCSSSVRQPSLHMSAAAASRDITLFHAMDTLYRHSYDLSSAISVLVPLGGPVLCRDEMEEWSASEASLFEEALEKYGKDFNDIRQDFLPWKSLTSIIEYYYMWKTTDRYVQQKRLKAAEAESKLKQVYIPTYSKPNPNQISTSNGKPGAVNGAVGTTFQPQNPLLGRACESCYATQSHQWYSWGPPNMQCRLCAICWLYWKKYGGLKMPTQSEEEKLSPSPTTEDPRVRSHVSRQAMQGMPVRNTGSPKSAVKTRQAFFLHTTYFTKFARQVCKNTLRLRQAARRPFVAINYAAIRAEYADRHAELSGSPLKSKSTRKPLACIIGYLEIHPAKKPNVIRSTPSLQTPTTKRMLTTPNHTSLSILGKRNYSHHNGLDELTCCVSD
# UniProt Q9H2K0, whole entry, looked up: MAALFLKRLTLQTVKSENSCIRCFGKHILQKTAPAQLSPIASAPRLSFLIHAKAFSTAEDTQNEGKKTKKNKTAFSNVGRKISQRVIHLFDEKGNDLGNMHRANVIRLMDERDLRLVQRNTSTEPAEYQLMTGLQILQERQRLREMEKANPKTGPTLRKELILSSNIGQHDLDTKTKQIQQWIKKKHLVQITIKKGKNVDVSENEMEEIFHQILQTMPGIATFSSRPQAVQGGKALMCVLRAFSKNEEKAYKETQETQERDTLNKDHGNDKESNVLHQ
# UniProt P03897, whole entry, looked up: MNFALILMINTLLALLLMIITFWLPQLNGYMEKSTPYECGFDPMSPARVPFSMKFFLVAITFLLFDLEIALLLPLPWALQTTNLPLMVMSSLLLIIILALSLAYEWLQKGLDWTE
# UniProt Q8TAX7: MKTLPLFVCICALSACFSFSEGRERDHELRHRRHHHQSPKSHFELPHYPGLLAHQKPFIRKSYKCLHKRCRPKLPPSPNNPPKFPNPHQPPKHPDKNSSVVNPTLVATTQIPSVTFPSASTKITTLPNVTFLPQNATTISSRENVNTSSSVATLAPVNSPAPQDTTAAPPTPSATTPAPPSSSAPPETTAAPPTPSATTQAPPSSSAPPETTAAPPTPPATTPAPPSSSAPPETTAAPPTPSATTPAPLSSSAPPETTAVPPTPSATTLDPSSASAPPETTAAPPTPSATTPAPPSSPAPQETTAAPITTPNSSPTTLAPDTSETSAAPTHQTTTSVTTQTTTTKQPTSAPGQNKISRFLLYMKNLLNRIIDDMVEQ
# UniProt Q96DP5: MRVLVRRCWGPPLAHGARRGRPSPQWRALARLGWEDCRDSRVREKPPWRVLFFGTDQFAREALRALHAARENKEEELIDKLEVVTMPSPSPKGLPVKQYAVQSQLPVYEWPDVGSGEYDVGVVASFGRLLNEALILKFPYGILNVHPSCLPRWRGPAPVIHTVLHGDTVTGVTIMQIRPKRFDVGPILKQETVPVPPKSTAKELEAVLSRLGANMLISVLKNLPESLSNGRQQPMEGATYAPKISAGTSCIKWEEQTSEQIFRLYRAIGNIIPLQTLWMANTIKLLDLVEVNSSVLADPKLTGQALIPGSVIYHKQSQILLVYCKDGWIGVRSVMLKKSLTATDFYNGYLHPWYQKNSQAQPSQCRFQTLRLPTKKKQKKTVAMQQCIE
# UniProt G3V1V0: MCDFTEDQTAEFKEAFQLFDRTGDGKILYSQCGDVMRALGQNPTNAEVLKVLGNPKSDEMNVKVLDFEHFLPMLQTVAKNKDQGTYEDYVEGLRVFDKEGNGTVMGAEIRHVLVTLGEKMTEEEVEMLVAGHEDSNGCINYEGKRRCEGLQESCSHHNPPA
# UniProt Q15746, whole entry, looked up: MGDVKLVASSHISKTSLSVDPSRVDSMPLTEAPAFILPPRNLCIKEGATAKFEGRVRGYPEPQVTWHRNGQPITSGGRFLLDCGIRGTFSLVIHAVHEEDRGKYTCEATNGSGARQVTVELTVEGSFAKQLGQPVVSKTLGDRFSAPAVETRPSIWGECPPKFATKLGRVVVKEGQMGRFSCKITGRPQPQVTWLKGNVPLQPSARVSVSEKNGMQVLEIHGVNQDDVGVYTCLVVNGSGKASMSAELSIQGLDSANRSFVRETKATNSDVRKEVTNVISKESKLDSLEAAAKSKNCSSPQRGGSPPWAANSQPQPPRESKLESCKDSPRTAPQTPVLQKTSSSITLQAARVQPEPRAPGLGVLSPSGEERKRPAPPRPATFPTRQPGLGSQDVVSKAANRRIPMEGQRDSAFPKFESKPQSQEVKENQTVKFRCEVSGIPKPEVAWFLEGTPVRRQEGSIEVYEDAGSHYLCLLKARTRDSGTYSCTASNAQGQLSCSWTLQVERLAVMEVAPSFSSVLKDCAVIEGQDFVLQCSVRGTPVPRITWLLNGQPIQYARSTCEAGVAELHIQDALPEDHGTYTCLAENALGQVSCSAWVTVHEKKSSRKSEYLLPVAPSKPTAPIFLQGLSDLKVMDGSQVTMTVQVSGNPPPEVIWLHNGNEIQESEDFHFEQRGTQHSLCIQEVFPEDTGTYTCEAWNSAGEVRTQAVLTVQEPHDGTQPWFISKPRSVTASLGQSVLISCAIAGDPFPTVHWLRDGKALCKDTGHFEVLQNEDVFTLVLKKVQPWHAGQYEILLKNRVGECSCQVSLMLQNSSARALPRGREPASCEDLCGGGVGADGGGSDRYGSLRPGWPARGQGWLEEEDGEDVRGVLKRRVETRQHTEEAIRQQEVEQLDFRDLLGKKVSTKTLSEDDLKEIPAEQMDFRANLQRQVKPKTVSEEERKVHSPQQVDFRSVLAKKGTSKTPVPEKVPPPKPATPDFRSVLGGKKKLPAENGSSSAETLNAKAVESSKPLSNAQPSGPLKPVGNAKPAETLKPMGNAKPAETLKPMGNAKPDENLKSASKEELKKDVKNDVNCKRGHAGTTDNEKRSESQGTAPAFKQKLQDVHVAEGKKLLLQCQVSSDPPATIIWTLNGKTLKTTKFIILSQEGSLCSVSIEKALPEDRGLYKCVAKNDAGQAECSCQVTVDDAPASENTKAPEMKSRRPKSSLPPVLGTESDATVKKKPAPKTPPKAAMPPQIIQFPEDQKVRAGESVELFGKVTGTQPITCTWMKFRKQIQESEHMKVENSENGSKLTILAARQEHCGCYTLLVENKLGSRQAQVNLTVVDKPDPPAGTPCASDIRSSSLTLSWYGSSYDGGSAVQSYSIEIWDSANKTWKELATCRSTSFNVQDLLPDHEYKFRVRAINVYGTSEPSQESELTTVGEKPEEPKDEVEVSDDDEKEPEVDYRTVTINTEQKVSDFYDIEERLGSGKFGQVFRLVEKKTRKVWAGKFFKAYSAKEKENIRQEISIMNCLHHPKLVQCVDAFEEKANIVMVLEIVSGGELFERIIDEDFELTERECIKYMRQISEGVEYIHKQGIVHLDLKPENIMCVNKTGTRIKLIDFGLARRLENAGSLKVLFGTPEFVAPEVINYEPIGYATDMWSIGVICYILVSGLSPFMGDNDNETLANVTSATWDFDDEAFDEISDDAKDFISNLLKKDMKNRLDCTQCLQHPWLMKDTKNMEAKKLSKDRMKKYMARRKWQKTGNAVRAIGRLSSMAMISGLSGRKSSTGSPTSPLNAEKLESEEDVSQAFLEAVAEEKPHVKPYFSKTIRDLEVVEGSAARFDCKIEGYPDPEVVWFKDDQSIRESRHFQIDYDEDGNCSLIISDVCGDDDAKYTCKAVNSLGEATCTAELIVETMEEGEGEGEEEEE
# UniProt Q93083: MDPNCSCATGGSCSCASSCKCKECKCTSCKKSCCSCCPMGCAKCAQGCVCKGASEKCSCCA
# UniProt P00414, whole entry, looked up: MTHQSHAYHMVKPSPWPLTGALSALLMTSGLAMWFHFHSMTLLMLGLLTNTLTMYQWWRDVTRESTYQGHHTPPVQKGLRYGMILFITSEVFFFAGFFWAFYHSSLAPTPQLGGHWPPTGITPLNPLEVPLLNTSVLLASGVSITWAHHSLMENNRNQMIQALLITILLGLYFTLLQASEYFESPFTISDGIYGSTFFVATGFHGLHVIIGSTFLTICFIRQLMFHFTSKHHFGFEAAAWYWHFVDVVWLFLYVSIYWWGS
# UniProt Q9H6N6: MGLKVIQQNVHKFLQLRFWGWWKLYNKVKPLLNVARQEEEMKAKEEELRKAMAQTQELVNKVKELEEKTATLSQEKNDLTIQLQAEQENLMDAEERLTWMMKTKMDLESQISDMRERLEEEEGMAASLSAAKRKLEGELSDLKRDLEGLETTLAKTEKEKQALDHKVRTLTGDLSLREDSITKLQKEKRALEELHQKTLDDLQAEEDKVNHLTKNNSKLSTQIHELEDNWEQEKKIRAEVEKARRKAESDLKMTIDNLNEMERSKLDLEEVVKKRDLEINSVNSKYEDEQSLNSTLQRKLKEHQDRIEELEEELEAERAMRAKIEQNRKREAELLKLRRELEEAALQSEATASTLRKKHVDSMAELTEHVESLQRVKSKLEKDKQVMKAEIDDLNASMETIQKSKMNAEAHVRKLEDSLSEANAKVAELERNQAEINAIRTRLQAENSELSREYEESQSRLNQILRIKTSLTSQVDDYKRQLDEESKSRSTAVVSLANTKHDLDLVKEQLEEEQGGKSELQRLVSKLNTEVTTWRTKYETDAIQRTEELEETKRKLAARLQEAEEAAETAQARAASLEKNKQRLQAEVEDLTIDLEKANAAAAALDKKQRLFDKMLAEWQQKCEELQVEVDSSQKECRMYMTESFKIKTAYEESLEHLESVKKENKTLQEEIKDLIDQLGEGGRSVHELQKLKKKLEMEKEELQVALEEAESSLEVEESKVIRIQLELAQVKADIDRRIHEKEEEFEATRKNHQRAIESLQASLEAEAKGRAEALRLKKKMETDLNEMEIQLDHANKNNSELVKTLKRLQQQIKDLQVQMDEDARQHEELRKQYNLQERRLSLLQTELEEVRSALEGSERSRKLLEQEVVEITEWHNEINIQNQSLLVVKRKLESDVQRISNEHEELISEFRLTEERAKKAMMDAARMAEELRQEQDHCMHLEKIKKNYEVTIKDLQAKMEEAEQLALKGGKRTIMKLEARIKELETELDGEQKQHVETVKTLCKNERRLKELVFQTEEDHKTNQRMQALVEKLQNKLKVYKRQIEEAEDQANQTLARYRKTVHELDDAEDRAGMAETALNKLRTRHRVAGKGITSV
# UniProt P03923, whole entry, looked up: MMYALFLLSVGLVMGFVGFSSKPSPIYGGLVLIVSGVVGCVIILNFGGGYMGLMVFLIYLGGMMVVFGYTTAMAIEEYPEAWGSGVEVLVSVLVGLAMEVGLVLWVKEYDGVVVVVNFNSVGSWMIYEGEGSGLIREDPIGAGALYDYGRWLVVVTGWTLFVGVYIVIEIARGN
# UniProt P84157: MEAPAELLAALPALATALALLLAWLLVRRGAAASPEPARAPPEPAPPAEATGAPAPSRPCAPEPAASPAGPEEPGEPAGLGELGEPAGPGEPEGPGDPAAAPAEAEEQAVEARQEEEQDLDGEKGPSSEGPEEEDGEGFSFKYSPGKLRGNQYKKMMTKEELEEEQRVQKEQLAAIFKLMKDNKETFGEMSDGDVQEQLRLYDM
# UniProt O75570: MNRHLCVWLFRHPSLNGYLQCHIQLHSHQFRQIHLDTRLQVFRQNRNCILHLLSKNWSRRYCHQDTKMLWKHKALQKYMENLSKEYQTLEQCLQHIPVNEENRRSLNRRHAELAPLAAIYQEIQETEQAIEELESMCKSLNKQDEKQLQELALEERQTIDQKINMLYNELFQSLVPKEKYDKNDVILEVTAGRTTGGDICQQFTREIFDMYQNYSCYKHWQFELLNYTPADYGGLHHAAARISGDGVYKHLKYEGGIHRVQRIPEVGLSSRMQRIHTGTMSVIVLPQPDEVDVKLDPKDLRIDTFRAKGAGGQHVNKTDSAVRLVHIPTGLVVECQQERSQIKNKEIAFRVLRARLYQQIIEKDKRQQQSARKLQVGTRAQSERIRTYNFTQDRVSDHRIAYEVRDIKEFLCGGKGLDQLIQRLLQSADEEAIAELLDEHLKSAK
# UniProt Q13126: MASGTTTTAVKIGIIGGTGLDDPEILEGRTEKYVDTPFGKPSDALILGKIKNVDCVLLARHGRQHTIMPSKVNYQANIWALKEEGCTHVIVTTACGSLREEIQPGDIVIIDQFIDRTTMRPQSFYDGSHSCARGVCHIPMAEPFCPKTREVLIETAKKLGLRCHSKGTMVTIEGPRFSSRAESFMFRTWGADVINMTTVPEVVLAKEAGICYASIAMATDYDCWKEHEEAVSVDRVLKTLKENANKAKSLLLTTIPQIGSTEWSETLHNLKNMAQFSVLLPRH
# UniProt P08590, whole entry, looked up: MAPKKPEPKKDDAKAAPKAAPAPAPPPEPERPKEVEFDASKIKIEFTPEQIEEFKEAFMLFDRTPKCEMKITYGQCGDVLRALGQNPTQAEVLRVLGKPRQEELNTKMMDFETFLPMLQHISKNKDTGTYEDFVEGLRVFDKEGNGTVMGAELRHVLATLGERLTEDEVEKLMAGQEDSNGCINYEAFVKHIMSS
# What was measured:
# Experiment in all cases: log2 fold change, soluble protein after heating vs DMSO (PISA); higher = thermal stabilisation; K562 cells, 10 uM, 30 min; active = over 0.2 and 3.5 SD of the protein, either way, in both replicates (recomputed)
# [1] = compound: CC(C)(O)CC(=O)NCCn1ccc2ncnc(Nc3ccc(Oc4cccc(C(F)(F)F)c4)c(Cl)c3)c21
# Summary of the method: (§1)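 Aliquots of K562 cells (2×10^6 cells/mL) treated with 10 μM compound for 30 min were heated for 3 min over 48°C-58°C. After pooling and extraction in PBS with 0.5% NP-40 at 4°C, soluble protein from a 21,000xg, 90 min spin was quantified by TMTpro 16plex LC-MS/MS with channel sums equalised. Thermal stability is expressed against control samples, from duplicates, as a log2 fold change.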
# [2] = compound: CC(C)C1=C2N=C(C=C(N2N=C1)NCC3=CC=CC=C3)NCCCCCCN
# Summary of the method: as §1
# [3] = compound: CC1=C(C2=C(C=C1)C(=O)C3=CC=CC=C3N2CCCN)C
# Summary of the method: as §1
# [4] = compound: C1COCCN1CCN2C3=CC=CC=C3N=C2NC(=O)C4=CC(=CC=C4)[N+](=O)[O-] [IRAK-1-4 Inhibitor I]
# Summary of the method: as §1
# [5] = compound: CC(=O)c1cnc2ccc(-c3cc(Cl)c(O)c(Cl)c3)nc2c1N[C@H]1CC[C@H](CN(C)C)CC1
# Summary of the method: as §1
# [6] = compound: CC(C)(C)Cn1c(N)nc2ccc(-c3[nH]c(C(C)(C)C)nc3-c3ccc(F)cc3)nc21 [ralimetinib]
# Summary of the method: as §1
# [7] = compound: CC(C)C[C@@H](C=O)NC(=O)[C@H](CC(C)C)NC(=O)[C@H](CC(C)C)NC(=O)OCc1ccccc1
# Summary of the method: as §1
# [8] = compound: CC(C)N(C[C@H]1O[C@@H](n2cnc3c(N)ncnc32)[C@H](O)[C@@H]1O)[C@H]1C[C@@H](CCc2nc3cc(C(C)(C)C)ccc3[nH]2)C1 [pinometostat]
# Summary of the method: as §1
# [9] = compound: CC1=C(C(CC(=O)N1)C2=CC=C(C=C2)C(F)(F)F)C(=O)NC3=C(C=C4C(=C3)C=NN4)F
# Summary of the method: as §1
# [10] = compound: C=CC(=O)N1CCC[C@@H](n2nc(-c3ccc(Oc4ccccc4)cc3)c3c(N)ncnc32)C1 [ibrutinib]
# Summary of the method: as §1
target,measurement,setting,value
MTA3 (UniProt Q9BTC8),log2 fold change,[1],inactive: -0.335
same,log2 fold change,[2],inactive: 0.124
same,log2 fold change,[3],inactive: -0.109
MTERF4 (UniProt Q7Z6M4),log2 fold change,[4],inactive: -0.062
same,log2 fold change,[5],inactive: -0.012
same,log2 fold change,[6],inactive: -0.268
same,log2 fold change,[1],inactive: -0.104
same,log2 fold change,[2],inactive: 0.234
same,log2 fold change,[7],inactive: 0.239
same,log2 fold change,[8],inactive: -0.022
same,log2 fold change,[9],inactive: 0.012
same,log2 fold change,[3],inactive: 0.114
MTIF3 (UniProt Q9H2K0),log2 fold change,[10],inactive: 0.113
same,log2 fold change,[5],inactive: 0.047
same,log2 fold change,[1],inactive: -0.046
same,log2 fold change,[2],inactive: -0.057
same,log2 fold change,[9],inactive: -0.021
MTDH (UniProt E5RJU9),log2 fold change,[4],inactive: -0.053
same,log2 fold change,[8],inactive: 0.215
MT-ND3 (UniProt P03897),log2 fold change,[4],inactive: 0.045
same,log2 fold change,[10],inactive: -0.302
same,log2 fold change,[6],inactive: 0.097
same,log2 fold change,[2],inactive: 0.101
same,log2 fold change,[7],inactive: -0.039
same,log2 fold change,[8],inactive: -0.006
same,log2 fold change,[9],inactive: 0.025
MYH6 (UniProt P13533),log2 fold change,[1],inactive: -0.02
same,log2 fold change,[2],inactive: 0.066
same,log2 fold change,[9],inactive: -0.026
MTMR10 (UniProt Q9NXD2),log2 fold change,[4],inactive: -0.022
same,log2 fold change,[10],inactive: -0.116
same,log2 fold change,[1],inactive: -0.108
same,log2 fold change,[8],inactive: -0.048
same,log2 fold change,[9],inactive: 0.067
"MTHFD1, A0A384N5Y3",log2 fold change,[10],inactive: 0.002
same,log2 fold change,[5],inactive: -0.085
same,log2 fold change,[6],inactive: 0
same,log2 fold change,[1],inactive: -0.034
same,log2 fold change,[7],inactive: -0.008
same,log2 fold change,[3],inactive: 0.049
MTERF3 (UniProt Q96E29),log2 fold change,[10],inactive: 0.049
same,log2 fold change,[6],inactive: 0.088
same,log2 fold change,[2],inactive: 0.014
same,log2 fold change,[7],inactive: -0.069
same,log2 fold change,[3],inactive: -0.262
MUC7 (UniProt Q8TAX7),log2 fold change,[10],inactive: 0.113
same,log2 fold change,[6],inactive: -0.167
same,log2 fold change,[1],inactive: 0.115
same,log2 fold change,[7],inactive: 0.486
same,log2 fold change,[9],inactive: 0.034
MTMR4 (UniProt Q9NYA4),log2 fold change,[4],inactive: 0.136
same,log2 fold change,[6],inactive: -0.195
same,log2 fold change,[2],inactive: 0.052
same,log2 fold change,[7],inactive: 0.028
same,log2 fold change,[8],inactive: 0.206
MTFMT (UniProt Q96DP5),log2 fold change,[1],inactive: 0.253
same,log2 fold change,[3],inactive: 0.126
MTO1 isoform 6 (UniProt Q9Y2Z2),log2 fold change,[4],inactive: -0.011
same,log2 fold change,[5],inactive: -0.051
same,log2 fold change,[6],inactive: -0.004
same,log2 fold change,[1],inactive: -0.125
same,log2 fold change,[2],inactive: -0.044
same,log2 fold change,[7],inactive: 0.07
same,log2 fold change,[8],inactive: 0.104
same,log2 fold change,[9],inactive: 0.007
same,log2 fold change,[3],inactive: 0.095
MYL6 (UniProt G3V1V0),log2 fold change,[10],inactive: -0.079
same,log2 fold change,[5],inactive: 0.094
same,log2 fold change,[6],inactive: -0.127
same,log2 fold change,[2],inactive: 0.067
same,log2 fold change,[7],inactive: 0.06
same,log2 fold change,[3],inactive: 0.034
MSANTD2 (UniProt Q6P1R3),log2 fold change,[1],inactive: 0.047
same,log2 fold change,[3],inactive: 0.012
MTSS1 isoform 5 (UniProt O43312),log2 fold change,[5],inactive: -0.194
same,log2 fold change,[3],inactive: 0.226
MTHFD2L (UniProt Q9H903),log2 fold change,[1],inactive: 0.115
MYLK (UniProt Q15746),log2 fold change,[4],inactive: -0.051
same,log2 fold change,[10],inactive: -0.101
same,log2 fold change,[6],inactive: 0.524
same,log2 fold change,[2],inactive: -0.207
same,log2 fold change,[7],inactive: -0.181
same,log2 fold change,[8],inactive: -0.051
same,log2 fold change,[3],inactive: -0.136
MT1L (UniProt Q93083),log2 fold change,[5],inactive: 0.146
same,log2 fold change,[6],inactive: -0.014
same,log2 fold change,[2],inactive: 0.056
same,log2 fold change,[7],inactive: 0.146
same,log2 fold change,[9],inactive: 0.001
same,log2 fold change,[3],inactive: -0.333
MT-CO3 (UniProt P00414),log2 fold change,[4],inactive: 0.048
same,log2 fold change,[5],inactive: -0.158
same,log2 fold change,[6],inactive: -0.018
same,log2 fold change,[7],inactive: -0.042
same,log2 fold change,[8],inactive: 0.035
same,log2 fold change,[3],inactive: 0.234
MYH16 (UniProt Q9H6N6),log2 fold change,[4],inactive: -0.177
same,log2 fold change,[10],inactive: -0.02
same,log2 fold change,[5],inactive: 0.045
same,log2 fold change,[2],inactive: 0.026
same,log2 fold change,[8],inactive: -0.019
same,log2 fold change,[3],active: 0.805
MYL1 (UniProt P05976),log2 fold change,[10],inactive: 0.002
MT-ND6 (UniProt P03923),log2 fold change,[4],inactive: -0.11
same,log2 fold change,[10],inactive: -0.009
same,log2 fold change,[5],inactive: -0.259
same,log2 fold change,[8],inactive: 0.209
same,log2 fold change,[9],inactive: -0.107
same,log2 fold change,[3],inactive: -0.12
MYH15 (UniProt Q9Y2K3),log2 fold change,[10],inactive: 0.763
same,log2 fold change,[9],inactive: -0.117
MYO18B isoform 3 (UniProt Q8IUG5),log2 fold change,[10],inactive: -0.107
same,log2 fold change,[5],inactive: -0.08
same,log2 fold change,[6],inactive: 0.044
same,log2 fold change,[1],inactive: 0.127
same,log2 fold change,[2],inactive: -0.414
same,log2 fold change,[7],inactive: 0.402
same,log2 fold change,[9],inactive: 0.052
same,log2 fold change,[3],inactive: 0.002
MTHFD1L (UniProt B7ZM99),log2 fold change,[10],inactive: 0.024
same,log2 fold change,[5],inactive: -0.08
same,log2 fold change,[6],inactive: -0.034
same,log2 fold change,[2],inactive: 0.081
same,log2 fold change,[7],inactive: -0.024
same,log2 fold change,[9],inactive: -0.098
MYH3 (UniProt P11055),log2 fold change,[10],inactive: -0.009
same,log2 fold change,[2],inactive: -0.095
same,log2 fold change,[9],inactive: 0.017
same,log2 fold change,[3],inactive: -0.044
MTIF2 (UniProt P46199),log2 fold change,[1],inactive: 0.154
MXRA7 isoform 3 (UniProt P84157),log2 fold change,[6],inactive: -0.031
same,log2 fold change,[7],inactive: 0.151
MTRF1 (UniProt O75570),log2 fold change,[5],inactive: 0.023
MRPS36 (UniProt D6R941),log2 fold change,[1],inactive: 0.124
same,log2 fold change,[9],inactive: 0.094
MYNN (UniProt Q9NPC7),log2 fold change,[6],inactive: 0.167
same,log2 fold change,[7],inactive: 0.117
MTAP isoform 2 (UniProt Q13126),log2 fold change,[4],inactive: -0.337
same,log2 fold change,[10],inactive: 0.048
same,log2 fold change,[8],inactive: 0.042
MYH2 (UniProt Q9UKX2),log2 fold change,[10],inactive: -0.066
MTHFSD (UniProt Q2M296),log2 fold change,[5],inactive: 0.02
same,log2 fold change,[3],inactive: 0.081
MTRF1L (UniProt Q9UGC7),log2 fold change,[10],inactive: -0.008
same,log2 fold change,[5],inactive: -0.014
same,log2 fold change,[6],inactive: 0.061
same,log2 fold change,[1],inactive: 0.125
same,log2 fold change,[2],inactive: -0.028
same,log2 fold change,[7],inactive: -0.018
same,log2 fold change,[9],inactive: -0.037
same,log2 fold change,[3],inactive: -0.014
MYL3 (UniProt P08590),log2 fold change,[4],inactive: 0.082
same,log2 fold change,[10],inactive: 0.076
same,log2 fold change,[6],inactive: -0.067
same,log2 fold change,[2],inactive: -0.049
same,log2 fold change,[7],inactive: 0.013
same,log2 fold change,[8],inactive: 0.018
same,log2 fold change,[9],inactive: 0.049

# Some of the entries so far, as tab-separated lines.
target	measurement	setting	value
MTHFD1L (UniProt B7ZM99)	log2 fold change	[9]	inactive: -0.098
MYH3 (UniProt P11055)	log2 fold change	[10]	inactive: -0.009

# Fetched one by one from above (six):
target,measurement,setting,value
MT-ND6 (UniProt P03923),log2 fold change,[5],inactive: -0.259
MT-ND3 (UniProt P03897),log2 fold change,[9],inactive: 0.025
MYLK (UniProt Q15746),log2 fold change,[8],inactive: -0.051
MT-CO3 (UniProt P00414),log2 fold change,[6],inactive: -0.018
MT-ND3 (UniProt P03897),log2 fold change,[7],inactive: -0.039
MTHFD1L (UniProt B7ZM99),log2 fold change,[5],inactive: -0.08

# Two consecutive entries from above:
target,measurement,setting,value
MTHFD1L (UniProt B7ZM99),log2 fold change,[2],inactive: 0.081
same,log2 fold change,[7],inactive: -0.024

# — the supplement of paper PMC10849652
